Results on two substances are retold here after article PMC3677938.

Amino acid sequences for entries named in this document (tags omitted).
UniProt P42568: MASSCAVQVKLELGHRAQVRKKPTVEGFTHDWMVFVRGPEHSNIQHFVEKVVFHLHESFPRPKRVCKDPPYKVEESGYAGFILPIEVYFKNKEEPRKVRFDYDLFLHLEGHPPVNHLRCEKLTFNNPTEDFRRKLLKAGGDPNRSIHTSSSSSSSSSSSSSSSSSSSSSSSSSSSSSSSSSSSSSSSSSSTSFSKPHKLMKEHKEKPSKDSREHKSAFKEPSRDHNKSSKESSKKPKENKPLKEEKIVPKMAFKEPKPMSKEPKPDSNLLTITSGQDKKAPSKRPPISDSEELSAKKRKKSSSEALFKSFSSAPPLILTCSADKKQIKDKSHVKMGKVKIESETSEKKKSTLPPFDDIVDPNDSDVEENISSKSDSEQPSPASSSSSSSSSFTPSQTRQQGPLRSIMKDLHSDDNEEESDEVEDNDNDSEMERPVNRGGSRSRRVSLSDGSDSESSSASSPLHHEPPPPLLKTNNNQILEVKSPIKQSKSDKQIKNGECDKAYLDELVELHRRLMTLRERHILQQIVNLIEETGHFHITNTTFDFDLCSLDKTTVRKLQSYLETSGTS
UniProt P32780: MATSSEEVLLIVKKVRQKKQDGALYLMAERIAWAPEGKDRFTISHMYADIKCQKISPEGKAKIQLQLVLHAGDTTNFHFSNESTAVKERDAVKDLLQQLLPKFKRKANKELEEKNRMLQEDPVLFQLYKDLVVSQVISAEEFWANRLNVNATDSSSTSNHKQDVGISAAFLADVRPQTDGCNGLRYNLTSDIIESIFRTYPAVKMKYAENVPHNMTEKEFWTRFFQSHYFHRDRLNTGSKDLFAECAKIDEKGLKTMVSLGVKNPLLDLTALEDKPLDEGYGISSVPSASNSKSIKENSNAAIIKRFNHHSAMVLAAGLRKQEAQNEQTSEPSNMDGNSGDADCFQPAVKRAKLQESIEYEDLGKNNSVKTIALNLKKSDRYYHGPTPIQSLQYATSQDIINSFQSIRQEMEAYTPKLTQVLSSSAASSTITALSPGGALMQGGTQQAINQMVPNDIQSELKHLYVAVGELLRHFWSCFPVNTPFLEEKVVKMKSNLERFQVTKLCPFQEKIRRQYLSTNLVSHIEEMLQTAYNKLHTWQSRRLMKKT

The target of this assay is T1, GST-AF-1 (1–92) (human) (UniProt P10276).
T1 sequence: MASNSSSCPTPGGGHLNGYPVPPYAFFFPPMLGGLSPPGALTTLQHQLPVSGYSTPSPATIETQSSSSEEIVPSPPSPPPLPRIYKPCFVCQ
Put plainly: affinity purification with mass spectrometry; GST-AF-1 immobilised on beads (20 µg) incubated at 4°C for 6–10 hours with 2–6 mg HeLa nuclear extract in 20 mM Tris-HCl pH 7.9, 100 mM KCl, 0.1% NP-40, 1 mg/mL BSA; washes with 150 mM KCl and 0.3% NP-40; SDS-PAGE bands analysed by MALDI-TOF; only the target purified.

These are yes or no findings as the source states them, for the method shown. In cells and extracts the contact can be indirect. These calls come from enrichment with a bait or labelling near it, and not all partners need be listed. Where a sequence is shown, tags or fusion partners need not be part of it.

For “AF9/MLLT3 (ALL1 fused gene from chromosome 9) (from UniProt P42568 1-568)”, the binding result is “binds”.

For the substance “p62 subunit of TFIIH (BTF2) (from UniProt P32780 1-548)”, the binding entry is on record as “binds”.
